Measured values as given in the supplement of paper PMC3334620.
The full ranking holds about 33,000 sequences; the median of “E-score (-0.5 to 0.5)” is about -0.0034, and the highest 2% start at about 0.25. The list shows a part of the results.

The sequences below were run against T1, Yap3 (UniProt P38749) (assay: PBM E-score (8-mer binding enrichment) (E-score (-0.5 to 0.5)); higher = stronger / more preferred TF binding). Conditions: protein concentration: 100 nM; construct: GST-full length.
T1 sequence: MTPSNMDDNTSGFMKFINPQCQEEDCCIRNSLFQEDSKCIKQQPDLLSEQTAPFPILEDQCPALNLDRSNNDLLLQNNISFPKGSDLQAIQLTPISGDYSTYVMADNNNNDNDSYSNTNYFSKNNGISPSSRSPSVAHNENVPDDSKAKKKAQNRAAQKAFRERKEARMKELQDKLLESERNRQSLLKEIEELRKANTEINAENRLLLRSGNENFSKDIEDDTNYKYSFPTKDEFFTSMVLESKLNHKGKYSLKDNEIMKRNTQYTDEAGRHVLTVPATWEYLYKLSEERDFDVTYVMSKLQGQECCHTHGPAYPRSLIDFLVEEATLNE
Protocol: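 Universal 'all 10-mer' protein binding microarrays (Agilent AMADID 015681) probed with GST-tagged S. cerevisiae TFs (full-length or DBD) made by in vitro transcription/translation (PURExpress), about 100-200 nM. Bound TF was detected with fluorescent anti-GST. Each ungapped 8-mer (which stands for itself and its reverse complement) is scored by the PBM enrichment score (E-score), a modified Wilcoxon-Mann-Whitney statistic from -0.5 to +0.5, computed with the Universal PBM Analysis Suite. Scale: above 0.35 generally sequence-specific binding.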
With CACACGTC the “PBM E-score” value was -0.065.
For ACTCCCGG, the “PBM E-score” value was -0.2.
CAGATGTC was tested, and the “PBM E-score” value was -0.0742.
For GGCTGCCA, the “PBM E-score” value was -0.278.
In the case of CCCCGTAC, the “PBM E-score” value is reported as -0.231.
With AACGGAGC the “PBM E-score” value was -0.11.
For TCATCAGA, the “PBM E-score” value was -0.0246.
For ACCCATGC, the “PBM E-score” value was 0.0299.
With AGACACCG the “PBM E-score” value was -0.11.
TATTTCGA was tested, and the “PBM E-score” value was 0.293.
AACCAACG was tested, and the “PBM E-score” value was -0.126.
With GGTGGTAC the “PBM E-score” value was -0.223.
ATGACAGC was tested, and the “PBM E-score” value was 0.0738.
With GAGGAAGC the “PBM E-score” value was -0.268.
For GATGGAGA, the “PBM E-score” value was 0.0511.
For CCTCCCTA, the “PBM E-score” value was -0.2.
For CTCAGCTC, the “PBM E-score” value was -0.181.
For CGACCAAC, the “PBM E-score” value was -0.0192.
For AATACTAG, the “PBM E-score” value was 0.221.
In the case of GGGAACAC, the “PBM E-score” value is reported as 0.0871.
AAGATCTC was tested, and the “PBM E-score” value was -0.15.
CTCTACCC was tested, and the “PBM E-score” value was 0.0889.
In the case of CTTTAAGC, the “PBM E-score” value is reported as 0.0717.
In the case of CTCGATCC, the “PBM E-score” value is reported as -0.0821.
For ACGGGGCC, the “PBM E-score” value was -0.182.
In the case of AGACCACG, the “PBM E-score” value is reported as -0.103.
For GTGCGAAA, the “PBM E-score” value was 0.0342.
For GTGGAAAA, the “PBM E-score” value was 0.171.
With AGGACTTC the “PBM E-score” value was -0.239.
AAACAAGA was tested, and the “PBM E-score” value was 0.183.
With AGCAGCGC the “PBM E-score” value was -0.0668.
For GGTGAGTA, the “PBM E-score” value was 0.0543.
AGACCCAA was tested, and the “PBM E-score” value was 0.0569.
CGCGCCAC was tested, and the “PBM E-score” value was 0.0775.
With CACTCATC the “PBM E-score” value was 0.0972.
In the case of CCAGCGTC, the “PBM E-score” value is reported as -0.304.
For AGTAGCAA, the “PBM E-score” value was 0.147.
In the case of CAAAACCC, the “PBM E-score” value is reported as 0.11.
In the case of ACACGAAA, the “PBM E-score” value is reported as 0.116.
For ACGGTGCG, the “PBM E-score” value was -0.00317.
GTCAATTA was tested, and the “PBM E-score” value was 0.111.
In the case of TAGTTATA, the “PBM E-score” value is reported as 0.248.
For GAGATCCA, the “PBM E-score” value was -0.12.
For GACAATGC, the “PBM E-score” value was 0.0992.
For CGCGATCC, the “PBM E-score” value was -0.0417.
For AATTCCGA, the “PBM E-score” value was 0.181.
AGATCTGG was tested, and the “PBM E-score” value was -0.162.
For GGCAACAA, the “PBM E-score” value was 0.0652.
With AGAGATTC the “PBM E-score” value was 0.0265.
ATTTCACA was tested, and the “PBM E-score” value was 0.198.
In the case of ATTCTGAG, the “PBM E-score” value is reported as 0.0149.
TATTGTCA was tested, and the “PBM E-score” value was 0.176.
With ACATGCCT the “PBM E-score” value was -0.0931.
In the case of CATCTTCG, the “PBM E-score” value is reported as -0.0195.
GTCACTGA was tested, and the “PBM E-score” value was -0.121.
CTTACAAA was tested, and the “PBM E-score” value was 0.19.
With ACCGCCGA the “PBM E-score” value was -0.0464.
For AAATCCCC, the “PBM E-score” value was -0.159.
In the case of ACGTCTAC, the “PBM E-score” value is reported as -0.0283.
For CCAGAGCG, the “PBM E-score” value was -0.147.
In the case of AACTTGGC, the “PBM E-score” value is reported as 0.0892.
With CTAACTAA the “PBM E-score” value was 0.175.
For ATGCTCGC, the “PBM E-score” value was 0.0848.
AGCCTGAA was tested, and the “PBM E-score” value was -0.0763.
In the case of AAGTCGCC, the “PBM E-score” value is reported as -0.262.
GTGGGCAA was tested, and the “PBM E-score” value was -0.0581.
GCGCTAAC was tested, and the “PBM E-score” value was 0.0488.
ATCGGAAC was tested, and the “PBM E-score” value was 0.113.
ACCCCACG was tested, and the “PBM E-score” value was -0.143.
With CCTGGACC the “PBM E-score” value was -0.205.
In the case of CAGGCAAA, the “PBM E-score” value is reported as 0.139.
In the case of CATGAATA, the “PBM E-score” value is reported as 0.0196.
In the case of AACGCCTA, the “PBM E-score” value is reported as 0.0419.
ACACACTC was tested, and the “PBM E-score” value was 0.186.
For GGAGCGGA, the “PBM E-score” value was -0.168.
For AGGCCTGC, the “PBM E-score” value was -0.105.
AGTCCTCG was tested, and the “PBM E-score” value was -0.143.
For CGGGAACG, the “PBM E-score” value was -0.071.
With ACCCCGAG the “PBM E-score” value was -0.134.
In the case of CATCGACA, the “PBM E-score” value is reported as -0.132.
With ATCACACA the “PBM E-score” value was 0.146.
AAGTGTGG was tested, and the “PBM E-score” value was -0.00116.
With ACTGACGG the “PBM E-score” value was -0.0998.
In the case of ACTCCCTC, the “PBM E-score” value is reported as -0.223.
For ACCATTGG, the “PBM E-score” value was 0.0207.
In the case of GACGCATA, the “PBM E-score” value is reported as 0.0801.
With ACCCAAGA the “PBM E-score” value was -0.105.
For AGAGAGTC, the “PBM E-score” value was -0.035.
For AGCGAGCC, the “PBM E-score” value was -0.122.
In the case of GTTTCAGA, the “PBM E-score” value is reported as -0.0672.
With GACGTACA the “PBM E-score” value was 0.0264.
In the case of CCGTCGGC, the “PBM E-score” value is reported as -0.189.
With GAAATAGC the “PBM E-score” value was 0.098.
With CAACCCGG the “PBM E-score” value was -0.275.
ATAGTAAA was tested, and the “PBM E-score” value was 0.238.
In the case of TGATCAAA, the “PBM E-score” value is reported as 0.0113.
With AACCGCCA the “PBM E-score” value was -0.1.
With CTGCGGCA the “PBM E-score” value was -0.239.
For CGTTACCC, the “PBM E-score” value was -0.116.
In the case of CCAGTCAC, the “PBM E-score” value is reported as -0.111.
In the case of ATGCTAAC, the “PBM E-score” value is reported as -0.064.
For ACTCCGAC, the “PBM E-score” value was -0.0296.
With ACGGGTGG the “PBM E-score” value was -0.147.
In the case of CATAACAA, the “PBM E-score” value is reported as 0.18.
CTCAGAAG was tested, and the “PBM E-score” value was -0.218.
In the case of CCACCTAA, the “PBM E-score” value is reported as -0.0162.
For AGACCGCT, the “PBM E-score” value was -0.161.
CATCGAGA was tested, and the “PBM E-score” value was 0.0462.
GTGGGAGA was tested, and the “PBM E-score” value was -0.13.
In the case of CGACCGAG, the “PBM E-score” value is reported as -0.0733.
With CAACTTGC the “PBM E-score” value was -0.111.
In the case of CAATGGTG, the “PBM E-score” value is reported as -0.213.
ATGGTTCC was tested, and the “PBM E-score” value was 0.0898.
In the case of AAAATTGC, the “PBM E-score” value is reported as 0.0358.
For AGCTCTGG, the “PBM E-score” value was -0.167.
With CGCGCACA the “PBM E-score” value was 0.125.
AAAATGTC was tested, and the “PBM E-score” value was 0.119.
For ACCCATCG, the “PBM E-score” value was -0.123.
In the case of CCTACACA, the “PBM E-score” value is reported as 0.181.
ATGCCGGG was tested, and the “PBM E-score” value was -0.152.
With TCAGCTGA the “PBM E-score” value was 0.104.
In the case of ACCATCCG, the “PBM E-score” value is reported as 0.0113.
With ACTTTGCG the “PBM E-score” value was 0.052.
With ATGAGCAG the “PBM E-score” value was -0.182.
With ACGGTAGA the “PBM E-score” value was -0.0586.
With CGGATGAG the “PBM E-score” value was -0.0331.
AGACAACG was tested, and the “PBM E-score” value was 0.074.
For AAAAGAGA, the “PBM E-score” value was 0.121.
With AATTATAC the “PBM E-score” value was 0.26.
With GCGTGATA the “PBM E-score” value was 0.137.
For CAATGACC, the “PBM E-score” value was -0.134.
With CACTAAGG the “PBM E-score” value was -0.121.
For ACACATAT, the “PBM E-score” value was 0.155.
CTGAGGTA was tested, and the “PBM E-score” value was -0.0199.
ACTTCATA was tested, and the “PBM E-score” value was 0.108.
CACGGATA was tested, and the “PBM E-score” value was 0.291.
ACAGTGCA was tested, and the “PBM E-score” value was 0.0775.
In the case of AAAGTGCC, the “PBM E-score” value is reported as -0.251.
In the case of CATTGTTC, the “PBM E-score” value is reported as 0.125.
For GCTATTGA, the “PBM E-score” value was -0.00647.
With AATAGCCG the “PBM E-score” value was 0.0258.
In the case of AACATCCG, the “PBM E-score” value is reported as 0.069.
In the case of GTTGCTTA, the “PBM E-score” value is reported as 0.166.
For CGAGTTTA, the “PBM E-score” value was 0.0811.
With AACTTTGC the “PBM E-score” value was -0.0487.
With CCACTTTA the “PBM E-score” value was 0.171.
CCCTAACG was tested, and the “PBM E-score” value was -0.0642.
In the case of AAACCGAA, the “PBM E-score” value is reported as -0.0751.
For CCAAATTA, the “PBM E-score” value was 0.192.
In the case of GCGTGTTA, the “PBM E-score” value is reported as -0.00985.
For ACCATCGC, the “PBM E-score” value was 0.116.
With ACTTTTGA the “PBM E-score” value was 0.118.
In the case of CGACTTCA, the “PBM E-score” value is reported as -0.00627.
For ACACACTG, the “PBM E-score” value was -0.0799.
For ACAATACG, the “PBM E-score” value was 0.0668.
With ACTGCAAG the “PBM E-score” value was -0.124.
In the case of CCAGAGTA, the “PBM E-score” value is reported as -0.0215.
CTGCCAGC was tested, and the “PBM E-score” value was -0.224.
With GGAGAGTA the “PBM E-score” value was -0.046.
CACTTATA was tested, and the “PBM E-score” value was 0.0806.
TCTTAGAA was tested, and the “PBM E-score” value was 0.0708.
For GCCTCGCA, the “PBM E-score” value was -0.0351.
In the case of AATCCACT, the “PBM E-score” value is reported as 0.0555.
CTAAGGCC was tested, and the “PBM E-score” value was -0.252.
In the case of CATGTAAG, the “PBM E-score” value is reported as 0.155.
With CCGAGGAA the “PBM E-score” value was -0.0542.
With ACGTGTCT the “PBM E-score” value was -0.0736.
In the case of CCCAACCG, the “PBM E-score” value is reported as -0.161.
For AGGATTGG, the “PBM E-score” value was -0.102.
For AGAGATCG, the “PBM E-score” value was -0.106.
In the case of AACCGCTC, the “PBM E-score” value is reported as -0.0667.
With AGAAGCAA the “PBM E-score” value was 0.138.
